Some entries share one result that the patent states for a list of compounds.
Molecular target: CDK-2 (Homo sapiens, UniProt P24941)
Assay: CDK-2 enzyme activity inhibition (33P-ATP filter plate kinase assay)
Assay type: biochemical
Details: read-out: CDK-2 inhibition IC50
Text: [General Procedure for Measurement of CDK-2 Enzyme Activity Inhibition]

Cc1c(NC2CCCNC2)nc2ccnn2c1Nc1ccc(F)c(Cl)c1 (stereo not shown) [Compound 152]
IC50: < 100 µM
